We go through one sequence from publication PMC3556126, “The site-specific integration reaction of Listeria phage A118 integrase, a serine recombinase”.

A weaker result is weaker than the reference pair of the same experiment. Where a protein sequence is shown, tags need not be part of it.

This data set concerns the target T1, A118 integrase C-terminal domain (HisInt158-452) (Listeria monocytogenes phage A118) (UniProt Q8Y4U8).
T1 sequence (looked up): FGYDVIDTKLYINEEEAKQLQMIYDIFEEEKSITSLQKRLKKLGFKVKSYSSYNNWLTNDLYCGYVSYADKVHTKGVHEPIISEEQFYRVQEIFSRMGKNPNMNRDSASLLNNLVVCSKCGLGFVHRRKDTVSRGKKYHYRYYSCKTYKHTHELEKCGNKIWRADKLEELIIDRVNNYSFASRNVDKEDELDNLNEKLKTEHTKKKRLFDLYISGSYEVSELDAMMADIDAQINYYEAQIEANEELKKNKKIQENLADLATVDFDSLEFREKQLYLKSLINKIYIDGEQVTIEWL
Briefly: EMSA. To be noted: 810 nM, weak monomer binding; 20 mM HEPES pH 7.5, 100 mM NaCl, 0.1 mg/ml BSA, 5 mM spermidine, 5 mM DTT, 5% glycerol, 50 ug/ml salmon sperm DNA, about 0.1 pmol probe in 10 ul, 30 C 30 min; recombinant protein; residues 158-452; protein details: N-terminal His (pET15b); label: 32P. (In general: In EMSA bound probe runs differently from free probe, usually more slowly.)

For “TTTAGTTCCTCGTTTTCTCTCGTTGGACTCCTCCTCGCTCGTCCCAGCCC (double strand) [attP Po- half-site]”, the binding result is recorded as “binds more weakly”.
